Paper PMC6614449

Protein sequences, listed by entry. Tags and fused reporters are not part of them. Lines headed by an entry give the natural chain unless they say otherwise; changes in a name come on top.
UniProt Q8TBM8: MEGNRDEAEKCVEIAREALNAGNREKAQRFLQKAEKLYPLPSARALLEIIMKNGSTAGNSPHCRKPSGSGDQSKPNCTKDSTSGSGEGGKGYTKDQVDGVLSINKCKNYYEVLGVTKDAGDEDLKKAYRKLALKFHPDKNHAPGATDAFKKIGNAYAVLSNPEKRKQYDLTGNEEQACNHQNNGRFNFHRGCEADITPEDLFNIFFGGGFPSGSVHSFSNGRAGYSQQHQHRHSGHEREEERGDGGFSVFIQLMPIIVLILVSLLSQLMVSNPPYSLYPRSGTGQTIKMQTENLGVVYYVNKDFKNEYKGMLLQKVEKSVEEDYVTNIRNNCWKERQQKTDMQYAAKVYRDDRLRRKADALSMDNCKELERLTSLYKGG
UniProt Q9NXW2: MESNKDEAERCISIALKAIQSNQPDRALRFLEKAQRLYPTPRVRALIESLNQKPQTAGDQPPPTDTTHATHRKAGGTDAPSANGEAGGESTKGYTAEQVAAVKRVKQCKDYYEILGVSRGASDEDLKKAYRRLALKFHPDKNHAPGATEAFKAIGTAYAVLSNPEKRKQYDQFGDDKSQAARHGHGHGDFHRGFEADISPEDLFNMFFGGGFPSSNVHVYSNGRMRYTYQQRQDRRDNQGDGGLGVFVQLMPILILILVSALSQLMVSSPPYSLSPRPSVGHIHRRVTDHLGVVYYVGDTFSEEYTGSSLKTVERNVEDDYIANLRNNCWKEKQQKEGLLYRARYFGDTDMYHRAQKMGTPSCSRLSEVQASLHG
UniProt P13569: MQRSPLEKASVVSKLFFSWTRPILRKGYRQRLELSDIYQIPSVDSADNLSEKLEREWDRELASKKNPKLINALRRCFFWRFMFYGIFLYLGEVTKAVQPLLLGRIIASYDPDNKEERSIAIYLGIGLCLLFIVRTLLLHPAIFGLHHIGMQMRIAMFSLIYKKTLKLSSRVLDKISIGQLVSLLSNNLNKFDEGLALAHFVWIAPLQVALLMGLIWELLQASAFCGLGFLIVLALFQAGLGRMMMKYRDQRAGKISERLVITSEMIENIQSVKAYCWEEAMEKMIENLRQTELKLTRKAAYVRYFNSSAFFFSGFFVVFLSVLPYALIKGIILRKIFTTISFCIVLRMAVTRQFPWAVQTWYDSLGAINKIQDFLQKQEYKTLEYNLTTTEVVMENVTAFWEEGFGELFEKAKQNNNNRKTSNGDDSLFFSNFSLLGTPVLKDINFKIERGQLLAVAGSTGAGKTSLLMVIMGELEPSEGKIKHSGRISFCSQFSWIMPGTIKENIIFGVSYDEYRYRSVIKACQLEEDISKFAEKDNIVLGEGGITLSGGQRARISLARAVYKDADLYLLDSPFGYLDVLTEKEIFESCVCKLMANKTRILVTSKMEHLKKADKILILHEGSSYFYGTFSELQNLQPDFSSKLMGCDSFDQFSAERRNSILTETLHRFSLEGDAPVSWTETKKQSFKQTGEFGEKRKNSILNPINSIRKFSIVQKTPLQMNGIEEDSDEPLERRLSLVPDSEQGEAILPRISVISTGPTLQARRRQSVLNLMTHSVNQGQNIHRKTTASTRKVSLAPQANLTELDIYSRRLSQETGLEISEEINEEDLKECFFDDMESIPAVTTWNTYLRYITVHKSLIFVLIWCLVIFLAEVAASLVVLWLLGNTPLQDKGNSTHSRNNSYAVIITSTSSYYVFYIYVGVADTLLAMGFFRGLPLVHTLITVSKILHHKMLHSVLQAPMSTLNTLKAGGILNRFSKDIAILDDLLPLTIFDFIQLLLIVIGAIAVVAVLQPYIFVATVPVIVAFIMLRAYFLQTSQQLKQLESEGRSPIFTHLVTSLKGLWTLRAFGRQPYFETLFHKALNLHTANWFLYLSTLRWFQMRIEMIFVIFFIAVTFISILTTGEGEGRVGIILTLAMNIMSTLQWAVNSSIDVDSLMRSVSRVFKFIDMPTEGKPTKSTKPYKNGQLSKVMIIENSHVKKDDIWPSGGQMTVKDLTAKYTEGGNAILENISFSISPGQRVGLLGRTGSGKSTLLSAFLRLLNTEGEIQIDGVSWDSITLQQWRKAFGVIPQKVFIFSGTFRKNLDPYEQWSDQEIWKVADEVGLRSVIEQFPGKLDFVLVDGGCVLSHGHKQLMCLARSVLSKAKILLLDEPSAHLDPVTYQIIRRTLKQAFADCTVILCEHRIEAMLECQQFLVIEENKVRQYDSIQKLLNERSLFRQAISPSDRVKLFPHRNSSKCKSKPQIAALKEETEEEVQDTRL

Columns and labels:
[1] = biological target: DNAJB14 (on the ProtoArray) (UniProt Q8TBM8); assay: peptide or protein array; ProtoArray protein microarray (Invitrogen / ThermoFisher) probed with purified full length FLAG-CFTR in solution; bound CFTR detected with mouse anti-FLAG monoclonal antibody and Alexa-488 secondary antibody, fluorescence scanner; mean of duplicate; both purified
[2] = biological target: DNAJB12 (on the ProtoArray) (UniProt Q9NXW2); assay: as above

binding [1]: binds
binding [2]: binds
Substance: full length FLAG-CFTR (WT-CFTR) (from UniProt P13569 1-1480)

Results are given in words; binding and its absence hold for the method and conditions named. A result given as binding can be weak or reduced; the word gives no strength.
